# Test results taken from PMC10777984.
# Sequences of proteins named here, by UniProt entry; tags and fusion partners are left off. Residues count along the entry.
# UniProt Q13224, residues 27-1484: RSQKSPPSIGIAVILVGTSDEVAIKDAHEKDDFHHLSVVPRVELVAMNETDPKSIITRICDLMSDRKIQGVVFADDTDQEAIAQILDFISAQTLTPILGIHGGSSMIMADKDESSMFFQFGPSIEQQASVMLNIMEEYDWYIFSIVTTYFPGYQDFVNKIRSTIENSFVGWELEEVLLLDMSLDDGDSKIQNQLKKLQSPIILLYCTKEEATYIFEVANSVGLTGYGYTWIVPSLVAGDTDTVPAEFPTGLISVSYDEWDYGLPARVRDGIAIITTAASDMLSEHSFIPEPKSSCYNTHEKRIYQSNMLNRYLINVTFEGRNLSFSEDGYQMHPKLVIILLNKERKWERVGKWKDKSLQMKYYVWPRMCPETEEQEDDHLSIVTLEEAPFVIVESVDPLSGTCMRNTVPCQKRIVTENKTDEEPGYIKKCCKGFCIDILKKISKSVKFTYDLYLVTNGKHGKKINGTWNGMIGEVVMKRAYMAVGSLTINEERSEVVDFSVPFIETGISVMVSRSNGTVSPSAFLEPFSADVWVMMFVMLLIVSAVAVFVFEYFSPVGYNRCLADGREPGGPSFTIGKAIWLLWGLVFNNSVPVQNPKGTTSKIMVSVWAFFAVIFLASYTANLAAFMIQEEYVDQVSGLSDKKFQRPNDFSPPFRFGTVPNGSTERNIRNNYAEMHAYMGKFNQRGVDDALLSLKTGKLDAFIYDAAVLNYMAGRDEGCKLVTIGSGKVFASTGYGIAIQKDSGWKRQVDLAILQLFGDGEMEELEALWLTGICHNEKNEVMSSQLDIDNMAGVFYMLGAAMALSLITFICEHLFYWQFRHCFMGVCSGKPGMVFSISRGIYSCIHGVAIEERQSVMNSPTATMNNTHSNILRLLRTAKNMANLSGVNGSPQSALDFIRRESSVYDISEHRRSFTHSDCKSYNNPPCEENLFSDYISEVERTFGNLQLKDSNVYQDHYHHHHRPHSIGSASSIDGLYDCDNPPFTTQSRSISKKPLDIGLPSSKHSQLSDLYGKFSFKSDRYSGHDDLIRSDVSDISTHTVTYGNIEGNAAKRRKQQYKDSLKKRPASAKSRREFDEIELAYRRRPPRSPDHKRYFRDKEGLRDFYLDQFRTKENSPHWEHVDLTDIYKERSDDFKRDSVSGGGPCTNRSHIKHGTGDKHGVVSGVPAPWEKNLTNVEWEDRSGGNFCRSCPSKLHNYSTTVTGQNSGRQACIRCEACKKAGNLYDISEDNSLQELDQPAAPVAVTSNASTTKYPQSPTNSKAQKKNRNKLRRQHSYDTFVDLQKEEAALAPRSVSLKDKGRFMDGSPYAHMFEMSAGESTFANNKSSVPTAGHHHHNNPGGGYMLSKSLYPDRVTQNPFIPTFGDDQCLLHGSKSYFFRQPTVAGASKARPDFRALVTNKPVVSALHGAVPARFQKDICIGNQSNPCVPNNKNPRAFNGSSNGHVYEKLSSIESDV
# UniProt P08581, residues 25-1390: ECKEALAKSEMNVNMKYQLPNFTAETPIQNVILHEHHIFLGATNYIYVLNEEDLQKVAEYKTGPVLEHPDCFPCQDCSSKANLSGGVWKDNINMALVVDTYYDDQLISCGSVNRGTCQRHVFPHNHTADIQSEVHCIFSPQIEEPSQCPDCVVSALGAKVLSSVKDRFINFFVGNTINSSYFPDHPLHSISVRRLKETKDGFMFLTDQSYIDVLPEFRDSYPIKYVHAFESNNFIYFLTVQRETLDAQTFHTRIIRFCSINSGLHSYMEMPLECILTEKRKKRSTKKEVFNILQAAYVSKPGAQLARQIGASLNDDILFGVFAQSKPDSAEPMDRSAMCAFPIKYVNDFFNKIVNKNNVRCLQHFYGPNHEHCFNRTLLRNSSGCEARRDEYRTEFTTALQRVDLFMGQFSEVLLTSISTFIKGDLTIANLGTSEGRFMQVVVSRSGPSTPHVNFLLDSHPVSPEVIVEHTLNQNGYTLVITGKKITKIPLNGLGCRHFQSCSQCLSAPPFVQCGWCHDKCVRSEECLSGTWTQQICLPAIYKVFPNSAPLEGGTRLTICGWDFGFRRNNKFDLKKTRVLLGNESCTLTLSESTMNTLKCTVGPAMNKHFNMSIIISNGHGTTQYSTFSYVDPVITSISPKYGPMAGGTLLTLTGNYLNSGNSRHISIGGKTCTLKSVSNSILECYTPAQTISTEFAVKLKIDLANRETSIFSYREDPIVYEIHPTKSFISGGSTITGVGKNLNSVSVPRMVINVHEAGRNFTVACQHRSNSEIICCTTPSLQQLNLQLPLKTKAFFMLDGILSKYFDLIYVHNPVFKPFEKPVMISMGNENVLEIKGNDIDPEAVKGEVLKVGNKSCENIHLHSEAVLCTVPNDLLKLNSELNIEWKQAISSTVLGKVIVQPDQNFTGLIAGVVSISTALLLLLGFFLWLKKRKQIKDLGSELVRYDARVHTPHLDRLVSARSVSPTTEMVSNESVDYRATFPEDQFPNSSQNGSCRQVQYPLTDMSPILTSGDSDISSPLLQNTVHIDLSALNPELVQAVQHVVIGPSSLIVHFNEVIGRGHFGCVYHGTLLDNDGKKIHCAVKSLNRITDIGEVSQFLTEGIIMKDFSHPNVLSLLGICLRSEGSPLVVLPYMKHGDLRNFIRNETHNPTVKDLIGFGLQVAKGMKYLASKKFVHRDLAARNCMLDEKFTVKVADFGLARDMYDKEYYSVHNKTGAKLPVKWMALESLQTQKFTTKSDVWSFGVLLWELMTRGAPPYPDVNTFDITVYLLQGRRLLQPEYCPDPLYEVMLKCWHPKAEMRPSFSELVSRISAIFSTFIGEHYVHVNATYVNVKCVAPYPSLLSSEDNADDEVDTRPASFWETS
# Results are given in words; binding and its absence hold for the method and conditions named. Binding seen in cells or lysates may run through a third protein. Some entries that bind do so weakly or less than the wild type.
# Target: NMDAR2B with a Flag tag, uncleaved 160 kDa form, transfected in Hek293T cells (human (from the printed GenBank entry NM_000834.5)) (UniProt Q13224)
# Experiment: co-IP; Hek293T transfected 24 h with NMDAR2B-Flag and MET-His (wild type or kinase-dead), alone or together; RIPA lysate, IP with anti-Flag or anti-His Tag antibody and protein A sepharose; blots for C-terminal NMDAR2B and MET
substance,measurement,value
"MET wild type with a His tag, transfected in Hek293T cells (from UniProt P08581-1 25-1390) (receptor)",binding,binds
